PubChem BioAssay AID652259 | Drosophila RNAi Screening Center, 2013
The screen tested about 22,000 reagents; below is an unselected part of those with a known target gene and a result. In the full data, 233 (1.1%) are marked active. 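Light values are raw, unnormalised plate reads; the ratio scores behind the reporter calls were not deposited.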 A plus sign joins genes that one reagent is predicted to hit. Not given: the amount of reagent, the time to read-out, the dose of the treatment.

- Purpose: 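Genome-wide hunt for genes that control Wingless pathway activity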 (primary screen)
- Cell system: Drosophila clone 8 imaginal disc epithelial cells
- Reagent: long dsRNA against Drosophila genes
- Challenge: pathway stimulated by co-transfected Wingless expression plasmid
- Detection: 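Dual luciferase reads per well after Wingless plasmid stimulation: reporter firefly light and Renilla control light; activity is firefly divided by Renilla, a ratio not deposited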
- Scale: firefly reporter light: higher = more Wg reporter light, before normalisation; Renilla control light: higher = more transfected or surviving cells
- Hit rule: 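a knock-down is a candidate when at least two out of four statistical tests show it departing from its plate mean; one test alone signals a weak candidate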
- Calls: active = candidate regulator (raises or lowers reporter); inactive = not a candidate

Depletion of LanA [DRSC11207] came out at: firefly reporter light, replicate 1 = 4176; Renilla control light, replicate 1 = 1826; inactive.
Depletion of CG6688 [DRSC16094] came out at: firefly reporter light, replicate 1 = 15621; Renilla control light, replicate 1 = 13200; inactive.
With knock-down of Ccn [DRSC09504], the record shows firefly reporter light, replicate 1 = 3589; Renilla control light, replicate 1 = 1345; inactive.
Ccn [DRSC09506] scored firefly reporter light, replicate 1 = 3373; Renilla control light, replicate 1 = 962; inactive.
Ccn [DRSC10062] gave firefly reporter light, replicate 1 = 5805; Renilla control light, replicate 1 = 2253; inactive.
After knock-down of Ccn [DRSC10063] the results were firefly reporter light, replicate 1 = 4738; Renilla control light, replicate 1 = 2584; inactive.
After knock-down of Pcl [DRSC07503], the screen gave firefly reporter light, replicate 1 = 20693; Renilla control light, replicate 1 = 5228; inactive.
Knock-down of synr [DRSC02369] came out at: firefly reporter light, replicate 1 = 3776; firefly reporter light, replicate 2 = 4916; Renilla control light, replicate 1 = 1783; Renilla control light, replicate 2 = 1052; inactive.
Ncc69 [DRSC10412] gave firefly reporter light, replicate 1 = 7332; Renilla control light, replicate 1 = 3617; inactive.
Ncc69 [DRSC10413] showed firefly reporter light, replicate 1 = 8769; Renilla control light, replicate 1 = 3018; inactive.
CG31821 [DRSC22162] gave firefly reporter light, replicate 1 = 4.58e5; firefly reporter light, replicate 2 = 5.17e5; Renilla control light, replicate 1 = 1.77e5; Renilla control light, replicate 2 = 2.08e5; inactive.
Against Pc [DRSC11873], the entry reads firefly reporter light, replicate 1 = 19496; Renilla control light, replicate 1 = 3186; inactive.
With knock-down of vkg [DRSC03632], the record shows firefly reporter light, replicate 1 = 2592; firefly reporter light, replicate 2 = 7245; Renilla control light, replicate 1 = 845; Renilla control light, replicate 2 = 2230; inactive.
With knock-down of Myo95E [DRSC15821] the results were firefly reporter light, replicate 1 = 2309; firefly reporter light, replicate 2 = 5491; Renilla control light, replicate 1 = 928; Renilla control light, replicate 2 = 2272; inactive.
Silencing of fra [DRSC07621] resulted in: firefly reporter light, replicate 1 = 5788; Renilla control light, replicate 1 = 2345; inactive.
Depletion of Ca-alpha1D [DRSC03284] resulted in: firefly reporter light, replicate 1 = 8378; Renilla control light, replicate 1 = 2985; inactive.

Targets listed so far whose gene name starts with N or n:
Ncc69 [DRSC10412] → firefly reporter light, replicate 1 = 7332; Renilla control light, replicate 1 = 3617; activity call = inactive
Ncc69 [DRSC10413] → firefly reporter light, replicate 1 = 8769; Renilla control light, replicate 1 = 3018; activity call = inactive

Next results:
For Ent1 [DRSC00330], the values are firefly reporter light, replicate 1 = 13225; Renilla control light, replicate 1 = 4838; inactive.
CG10516 [DRSC09738] showed firefly reporter light, replicate 1 = 8243; Renilla control light, replicate 1 = 3360; inactive.
For Grx1 [DRSC10727], the entry reads firefly reporter light, replicate 1 = 10216; Renilla control light, replicate 1 = 3794; inactive.
CR12628 + Mgstl [DRSC03702] scored firefly reporter light, replicate 1 = 2008; firefly reporter light, replicate 2 = 3488; Renilla control light, replicate 1 = 1013; Renilla control light, replicate 2 = 1984; inactive.
Against CR12628 + Mgstl [DRSC20568], the values are firefly reporter light, replicate 1 = 24544; Renilla control light, replicate 1 = 14875; inactive.
CG33465 [DRSC05587] showed firefly reporter light, replicate 1 = 24788; Renilla control light, replicate 1 = 20754; inactive.
CG42268 [DRSC10171] showed firefly reporter light, replicate 1 = 5328; Renilla control light, replicate 1 = 2537; inactive.
For CG42268 [DRSC10702], the entry reads firefly reporter light, replicate 1 = 5356; Renilla control light, replicate 1 = 2240; inactive.
CG42268 [DRSC21797] scored firefly reporter light, replicate 1 = 3.02e5; firefly reporter light, replicate 2 = 3.59e5; Renilla control light, replicate 1 = 1.25e5; Renilla control light, replicate 2 = 1.43e5; inactive.
